The source of these data is publication PMC5288152.

Protein sequences, listed by entry. Tags and fused reporters are not part of them. Residues count along the entry.
UniProt P00441: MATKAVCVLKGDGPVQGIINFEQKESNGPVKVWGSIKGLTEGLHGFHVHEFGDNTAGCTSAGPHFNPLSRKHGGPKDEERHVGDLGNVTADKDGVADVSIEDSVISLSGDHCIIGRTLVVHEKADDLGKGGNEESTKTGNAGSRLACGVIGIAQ
UniProt P06396, residues 28-782: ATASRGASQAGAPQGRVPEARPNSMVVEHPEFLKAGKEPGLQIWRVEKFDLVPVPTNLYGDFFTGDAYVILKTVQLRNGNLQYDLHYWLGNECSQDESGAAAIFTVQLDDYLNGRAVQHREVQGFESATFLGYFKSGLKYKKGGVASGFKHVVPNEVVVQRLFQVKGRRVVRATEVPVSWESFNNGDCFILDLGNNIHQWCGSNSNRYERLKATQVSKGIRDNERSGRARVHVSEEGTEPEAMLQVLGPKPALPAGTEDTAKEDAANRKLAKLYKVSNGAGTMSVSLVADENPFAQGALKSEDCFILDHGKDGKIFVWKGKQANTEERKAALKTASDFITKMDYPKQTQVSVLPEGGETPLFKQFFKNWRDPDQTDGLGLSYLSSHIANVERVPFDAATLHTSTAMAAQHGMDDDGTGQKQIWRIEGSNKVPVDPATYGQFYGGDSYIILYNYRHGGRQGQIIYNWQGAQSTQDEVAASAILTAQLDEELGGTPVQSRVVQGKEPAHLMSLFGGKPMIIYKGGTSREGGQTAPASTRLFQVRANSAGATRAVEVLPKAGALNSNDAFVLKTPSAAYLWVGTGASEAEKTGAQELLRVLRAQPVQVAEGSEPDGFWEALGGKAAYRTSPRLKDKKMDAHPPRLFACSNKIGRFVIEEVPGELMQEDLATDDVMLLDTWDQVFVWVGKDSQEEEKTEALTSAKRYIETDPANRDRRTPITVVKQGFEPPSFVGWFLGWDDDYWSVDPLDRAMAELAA

Results are given in words; binding and its absence hold for the method and conditions named. In cells and extracts the contact can be indirect. Some binding calls cover weakened binding; strength is not graded here.

The target of assay [1] is Cu/ZnSOD (human (endogenous in HCT116)) (UniProt P00441). In words: proximity ligation; in situ PLA (Duolink 563 kit) on fixed cells with primary antibodies against gelsolin and Cu/ZnSOD; gelsolin-overexpressing C1 cells, vector control cells, and C1 cells with gelsolin siRNA or control siRNA.
Assay [2] has the same target. In words: co-IP; endogenous Cu/ZnSOD immunoprecipitated from 500 ug of C1 cell lysate (modified RIPA buffer) with anti-Cu/ZnSOD antibody on protein A/G agarose beads, overnight at 4 C; gelsolin detected by western blot; mouse IgG as negative control. (A western blot detects proteins with antibodies after separation by electrophoresis.)

As to gelsolin (from UniProt P06396 28-782), the binding result in assay [1] and in assay [2] was “binds” each time.
